Measurements published in patent US20220332795A1.
Results are given in words; binding and its absence hold for the method and conditions named. Some entries that bind do so weakly or less than the wild type.

Amino acid sequences for entries named in this document (tags omitted). A change or cut given only in a name is not applied to a line headed by its entry. Chains listed by the source or under a name are the forms on record and can include a tag or linker.
human CD71 (transferrin receptor 1) extracellular domain, recombinant, biotinylated (P02786, form named): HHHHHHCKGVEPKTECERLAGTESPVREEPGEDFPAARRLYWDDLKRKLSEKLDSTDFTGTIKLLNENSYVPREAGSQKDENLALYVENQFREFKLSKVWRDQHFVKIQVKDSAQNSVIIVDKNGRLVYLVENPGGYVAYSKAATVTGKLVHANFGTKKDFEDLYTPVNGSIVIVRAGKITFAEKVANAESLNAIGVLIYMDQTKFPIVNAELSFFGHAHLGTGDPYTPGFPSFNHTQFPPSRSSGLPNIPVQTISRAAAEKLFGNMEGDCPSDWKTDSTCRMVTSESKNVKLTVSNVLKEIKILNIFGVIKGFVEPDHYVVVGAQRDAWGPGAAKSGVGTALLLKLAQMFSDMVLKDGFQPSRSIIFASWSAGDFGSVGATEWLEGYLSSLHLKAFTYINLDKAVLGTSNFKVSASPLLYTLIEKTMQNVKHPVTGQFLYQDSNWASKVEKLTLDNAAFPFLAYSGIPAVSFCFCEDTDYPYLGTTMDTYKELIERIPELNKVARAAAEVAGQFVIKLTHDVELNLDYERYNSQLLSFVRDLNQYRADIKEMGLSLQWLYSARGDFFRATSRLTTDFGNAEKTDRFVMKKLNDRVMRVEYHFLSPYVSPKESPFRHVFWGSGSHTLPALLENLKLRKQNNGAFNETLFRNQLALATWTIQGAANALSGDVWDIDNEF

target: human CD71 (transferrin receptor 1) extracellular domain, recombinant, biotinylated (human) (UniProt P02786); experiment: hit of apical domain panning; heading of the sequence table

| Binder | binding |
| --- | --- |
| FN3 domain of SEQ ID NO: 1 (designed binder) MLPAPKNLVVSRVTEDSARLSWTAPDAAFDSFPITYIEAVVLGEAIVLTVPGSERSYDLTGLKPGTEYPVGISGVKGGHNSMPLSAIFTT | binds |
| FN3 domain of SEQ ID NO: 2 (designed binder) MLPAPKNLVVSEVTEDSARLSWQGVARAFDSFMINYSELFWMGEAIVLTVPGSERSYDLTGLKPGTEYVVRIKGVKGGKGSWPLHAHFTT | binds |
| FN3 domain of SEQ ID NO: 3 (designed binder) MLPAPKNLVVSRVTEDSARLSWTAPDAAFDSFNIEYAETRWYGEAIVLTVPGSERSYDLTGLKPGTEYVVPIDGVKGGIASKPLSAIFTT | binds |
| FN3 domain of SEQ ID NO: 4 (designed binder) MLPAPKNLVVSEVTEDSARLSWQGVARAFDSFLITYRDQIFAGEVIVLTVPGSERSYDLTGLKPGTEYPVWIQGVKGGSPSAPLSAESTT | binds |
| FN3 domain of SEQ ID NO: 5 (designed binder) MLPAPKNLVVSEVTEDSARLSWQGVARAFDSFLITYREQIFAGEVIVLTVPGSERSYDLTGLKPGTEYWVYIWGVKGGKPSFPLRAGFTT | binds |
| FN3 domain of SEQ ID NO: 6 (designed binder) MLPAPKNLVVSRVTEDSARLSWTAPDAAFDSFPIIYMETFSRGEAIVLTVPGSERSYDLTGLKPGTEYRVPIGGVKGGSSSCPLSAIFTT | binds |
| FN3 domain of SEQ ID NO: 7 (designed binder) MLPAPKNLVVSDVTEDSARLSWQGVARAFDSFLITYREQIFAGEVIVLTVPGSERSYDLTGLKPGTEYPVWIQGVKGGSPSAPLSAEFTT | binds |
| FN3 domain of SEQ ID NO: 10 (designed binder) MLPAPKNLVVSRVTEDSARLSWTAPDAAFDSFKIAYIETATRGEAIVLTVPGSERSYDLTGLKPGTEYVVPIPGVKGGNTSSPLSAIFTT | binds |
| FN3 domain of SEQ ID NO: 12 (designed binder) MLPAPKNLVVSRVTEDSARLSWTAPDAAFDSFFIPYAEPSPTGEAIVLTVPGSERSYDLTGLKPGTEYSVLIHGVKGGHLSDPLSAISTT | binds |
| FN3 domain of SEQ ID NO: 13 (designed binder) MLPAPKNLVVSRVTEDSARLSWTAPDAAFDSFLIAYPEDGFRGEAIVLTVPGSERSYDLTGLKPGTEYPVPILGVKGGGGSGPLSAIFTT | binds |
| FN3 domain of SEQ ID NO: 15 (designed binder) MLPAPKNLVVSRVTEDSARLSWQGVARAFDSFLITYREQIFAGEVIVLTVPGSERSYDLTGLKPGTECPVWIQGVKGGSPSAPLSAEFTT | binds |
| FN3 domain of SEQ ID NO: 17 (designed binder) MLPAPKNLVVSRVTEDSARLSWTAPDAAFDSFPILYTECVYRGEAIVLTVPGSERSYDLTGLKPGTEYHVPITGVKGGGGSWPLSAIFTT | binds |
| FN3 domain of SEQ ID NO: 18 (designed binder) MLPAPKNLVVSRVTEDSARLSWTAPDAAFDSFNIMYHEIIYVGEAIVLTVPGSERSYDLTGLKPGTEYPVPIEGVKGGGTSGPLSAIFTT | binds |
| FN3 domain of SEQ ID NO: 19 (designed binder) MLPAPKNLVVSRVTEDSARLSWTAPDAAFDSFAITYTEAALCGEAIVLTVPGSERSYDLTGLKPGTEYPVPINGVKGGGTSGPLSAIFTT | binds |
| FN3 domain of SEQ ID NO: 20 (designed binder) MLPAPKNLVVARVTEDSARLSWTAPDAAIDSFPIDYSEYWWGGEAIVLTVPGSERSYDLTGLKPGTEYPVLITGVKGGYRSGPLSAIFTT | binds |
| FN3 domain of SEQ ID NO: 21 (designed binder) MLPAPKNLVVSRVTEDSARLSWTAPDAAFDSFSIRYNEFIVAGEAIVLTVPGSERSYDLTGLKPGTEYDVPIAGVKGGGASWPLSAIVTT | binds |
| FN3 domain of SEQ ID NO: 22 (designed binder) MLPAPKNLVVSRVTEDSARLSWTAPDAAFDSFWYLELQFAGEAIVLTVPGSERSYDLTGLKPGTEYNVPITGVKGGIISFPLSAIFTT | binds |
| FN3 domain of SEQ ID NO: 23 (designed binder) MLPAPKNLVVSRVTEDSARLSWTAPDAAFDSFAIWYHEWYGDGEAIVLTVPGSERSYDLTGPKPGTEYRVRISGVKGGFESGPLSAIFTT | binds |
| FN3 domain of SEQ ID NO: 24 (designed binder) MLPAPKNLVVSRVTEDSARLSWTAPDAAFDSFMIRYQEGTRWGEAIVLTVPGSERSYDLTGLKPGTEYIVMIAGVKGGQISLPLSAIFTT | binds |
| FN3 domain of SEQ ID NO: 25 (designed binder) MLPAPKNLVVSRVTEDSARLSWTAPDAAFDSFPIWYLEKSYQGEAIVLTVPGSERSYDLTGLKPGTEYVVPIIGVKGGRDSCPLSAIFTT | binds |

| Binder | binding |
| --- | --- |
| FN3 domain of SEQ ID NO: 26 (designed binder) MLPAPKNLVVSEVTEDSARLSWQGVARAFDSFLITYREQIFAGEVIVLTVPGSERSYDLTGLKPGTEYPVWIQGVKGGSPSAPLSAEFTT | binds |
| FN3 domain of SEQ ID NO: 27 (designed binder) MLPAPKNLVVSRVTEDSARLSWTAPDAAFDSFRISYAETVRQGEAIVLTVPGSERSYDLTVETGYRNWVMILGVKGGPGSLPLSAIFTT | binds |
| FN3 domain of SEQ ID NO: 29 (designed binder) MLPAPKNLVVSRVTEDSARLSWTAPDAAFDSFWIEYWEAVGFGEAIVLTVPGSERSYDLTGLKPGTEYFVGIYGVKGGYLSAPLSAIFTT | binds |
| FN3 domain of SEQ ID NO: 30 (designed binder) MLPAPKNLVVSRVTEDSARLSWTAPDAAFDSFIIHYVEQQLIGEAIVLTVPGSERSYDLTGLKPGTEYPVPITGVKGGACSWPLSAIFTT | binds |
| FN3 domain of SEQ ID NO: 31 (designed binder) MLPAPKNLVVSRVTEDSARLSWTAPDAAFDSFTIEYSEHPIDGEAIPLFVPGSERSYDLTGLKPGTEYYVRIHGVKGGWFSHPLWAFFTT | binds |
| FN3 domain of SEQ ID NO: 32 (designed binder) MLPAPKNLVVSRVTEDSARLSWQGVARAFDSFLITYREQIFAGEVIVLTVPGSERSYDLTGLKPGTEYGVTIAGVKGGWRSKPLNAESTT | binds |
| FN3 domain of SEQ ID NO: 33 (designed binder) MLPAPKNLVVSRVTEDSARLSWTAPDAAFDSFGIAYVESYWYGEAIVLTVPGSERSYDLTGLKPGTEYNVPIYGVKGGDGSGPLSAIFTT | binds |
| FN3 domain of SEQ ID NO: 34 (designed binder) MLPAPKNLVVSRVTEDSARLSWTAPDAAFDSFYITYVELNLAGEAIVLTVPGSERSYDLTGLKPGTEYPVPILGVKGGSLSQPLSAIFTT | binds |
| FN3 domain of SEQ ID NO: 35 (designed binder) MLPAPKNLVVSRVTEDSARLSWTAPDAAFDSFPISYIESIADGEAIVLTVPGSERSYDLTGLKPGTEYWVAIVGVKGGPFSWSLSAIVTT | binds |
| FN3 domain of SEQ ID NO: 37 (designed binder) MLPAPKNLVVSRVTEDSARLSWTTPDAAFDSFPIYYWEVTITGEAIYLSVPGSERSYDLTGLKPGTEYPVDIPGVKGGAASPPLSAIFTT | binds |
| FN3 domain of SEQ ID NO: 38 (designed binder) MLPAPKNLVVSRVTEDSARLSWTAPDAAFDSFPILYLEHTVRSEAIVLTVPGSERSYDLTDLKPGTEYCVPIDGVKGGLRSRPLSAIFTT | binds |
| FN3 domain of SEQ ID NO: 39 (designed binder) MLPAPKNLVVSRVTEDSARLSWTAPDAAFDSFPIPYTEPPDPGEAIVLTVPGSERSYDLTGLKPGTEYLVTILGVKGGSMSVPLSAIFTT | binds |
| FN3 domain of SEQ ID NO: 40 (designed binder) MLPAPKNLVVSRVTEDSARLSWTAPDAAFDSFTIDYWENRCPGEAIVLTVPGSERSYDLTGLKPGTEYCVWISGVKGGYSSWPLSAIFTT | binds |
| FN3 domain of SEQ ID NO: 41 (designed binder) MLPAPKNLVVSRVTEDSARLSWQGVARAFDSFLITYREQIFAGEVIVLTVPGSERSYDLTGLKPGTEYPVWIQGVKGGHLSDPLSAIVTT | binds |
| FN3 domain of SEQ ID NO: 42 (designed binder) MLPAPKNLVVSRVTEDSARLSWTAPDAAFDSFLIPYAETSPSGEAIVLTVPGSERSYDLTGLKPGTEYSVLIHGVKGGDYSEPLSAIFTT | binds |
| FN3 domain of SEQ ID NO: 43 (designed binder) MLPAPKNLVVSRVTEDSARLSWTAPDAAFDSFMIVYYEYTRFGEAIVLTVPGSERSYDLTGLKPGTEYTVPIDGVKGGGRSSPLSAIFTT | binds |
| FN3 domain of SEQ ID NO: 44 (designed binder) MLPAPKNLVVSRVTEDSARLSWTAPDAAFDSFFIPYAEPSPTGEAIVLTVPGSERSYDLTGLKPGTEYSVLIHGVKGGHLSDPLSAIVTT | binds |
| FN3 domain of SEQ ID NO: 45 (designed binder) MLPAPKNLVVSEVTEDSARLSWQGVARAFDSFLITYREQIFAGEVIVLTVPGSERSYDLTGLKPGTEYPVWIQGVKGGSPSAPLSAEFTT | binds |
| FN3 domain of SEQ ID NO: 46 (designed binder) MLPAPKNLVVSRVTEDSARLSWTAPDAAFDSFIIPYAEVRPDGEAIVLTVPGSERSYDLTGLKPGTEYSVLIHGVKGGKLSLPLSAIFTT | binds |
| FN3 domain of SEQ ID NO: 47 (designed binder) MLPAPKNLVVSRVTEDSARLSWTAPDAAFDSFGIVYLEMMVTGEAIVLTVPGSERSYDLTGLKPGTEYDVPILGVKGGTRSVPLSAIFTT | binds |
